PubChem BioAssay AID493014 (National Center for Advancing Translational Sciences (NCATS), 2011)
This is one part of the list. These are further read-outs of the screen, such as a control signal, another cell line or another target. No call is given for them. The list favours compounds with an active or inconclusive main result. Potencies come from curve fits of mixed quality, noted in brackets.

Assay: qHTS Assay to Find Inhibitors of Chronic Active B-Cell Receptor Signaling
Settings: ABC-DLBCL IkBa-CBG/CBR reporter, luminescence ratio (green luciferase fused to IkBa over red control in TMD8 lymphoma cells), 4 h
How it was run: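 Doxycycline induced both beetle luciferases in TMD8 lymphoma cells; IKK-driven degradation limits the IkappaBalpha-fused green signal, while red luminescence normalises for cell number and nonspecific effects. Compounds tested up to 46 uM, 4 hrs.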

[1] = measured here: CBR red luminescence, cell number

COc1nc(-c2ccccc2Cl)ccc1C#N
AC50 [1]: 23.1 µM [rising, single point]

COCCn1c(=S)[nH]c2cc(C(=O)N3CCc4ccccc43)ccc2c1=O
AC50 [1]: 2.06 µM [falling, full curve] | AC50 (measured here: IkBa-CBG green luminescence): 5.17 µM [rising, partial curve, poor fit]

O=C(CSc1nnnn1-c1ccc(O)cc1)Nc1ccc(N2CCOCC2)c(Cl)c1
AC50 [1]: 14.6 µM [rising, partial curve, poor fit]

CCCCCCCCCCNC(=O)C(=O)Nc1ccccn1
AC50 [1]: 1.46 µM [rising, partial curve, poor fit]

COc1ccccc1-n1c(CNc2ccc(F)cc2)nnc1SCC(=O)Nc1cc(C)on1
AC50 [1]: 0.461 µM [falling, full curve]

CCOC(=O)c1ccc(NC(=O)c2cc3ccccc3o2)cc1
AC50 [1]: 0.447 µM [falling, full curve]

CCOc1ccccc1NC(=O)C(c1ccccc1)N1CCN(CC(=O)N2CCCC2)CC1 (stereo unspecified)
AC50 [1]: 0.259 µM [rising, partial curve, poor fit]

COc1cccc2cc(C(N)=O)oc12
AC50 [1]: 17.8 µM [falling, partial curve, poor fit]

COc1ccc(/C=C2/SC(=S)N(CCCC(=O)N3CCN(C)CC3)C2=O)cc1
AC50 [1]: 1.41 µM [falling, full curve]

CCCC(=O)OC(C(=O)Nc1cc(C(F)(F)F)ccc1Cl)c1ccccc1 (stereo unspecified)
AC50 [1]: 4.11 µM [rising, full curve, poor fit]

CC(C)(C)c1ccc(OC(=O)Nc2ccc(O)c(C(=O)O)c2)cc1
AC50 [1]: 4.47 µM [rising, full curve, poor fit]

CCN(CC)S(=O)(=O)c1ccc(N2CCN(C)CC2)c(NC(=O)COc2ccc(F)cc2Cl)c1
AC50 [1]: 0.58 µM [falling, full curve, poor fit]

Nc1nc2ccccc2n1C(=O)CCc1ccccc1
AC50 [1]: 2.31 µM [falling, full curve, poor fit]

CCn1c(SCC(=O)Nc2ccc(C)cc2)nnc1-c1ccccn1
AC50 [1]: 20 µM [falling, single point]

Oc1ccc(CCNc2ncnc3ccc(Cl)cc23)cc1
AC50 [1]: 3.55 µM [falling, partial curve, poor fit]

O=C(COc1cccc2ccccc12)N/N=C/c1ccccc1OCc1ccc(C(=O)O)cc1
AC50 [1]: 2.51 µM [falling, partial curve, poor fit]

O=C(CSc1ccc(Cl)cc1)Nc1ccc(N2CCN(c3ccccc3)CC2)c(F)c1
AC50 [1]: 35.5 µM [falling, partial curve, poor fit]

C=CCc1ccc(OCCCCN2CC(C)OC(C)C2)c(OC)c1 (stereo unspecified)
AC50 [1]: 1.03 µM [rising, full curve, poor fit]

O=C(/C=C/c1cccc([N+](=O)[O-])c1)NCCSc1ccccc1
AC50 [1]: 14.1 µM [falling, partial curve]

N#Cc1cc2ccccc2nc1SCC(=O)NC1CC1
AC50 [1]: 10 µM [falling, partial curve]

CCOC(=O)C1=NN(C(=O)Nc2cccc(C(F)(F)F)c2)C2C(=O)N(c3cccc(C(F)(F)F)c3)C(=O)C12 (stereo unspecified)
AC50 [1]: 0.00461 µM [rising, full curve, poor fit]

O=C(Cc1ccccc1)Nc1nc(-c2ccc(F)c(F)c2)cs1
AC50 [1]: 20 µM [rising, partial curve, poor fit]

O=C(CCCSc1nc2sc3c(c2c(=O)[nH]1)CCC3)NCCCO
AC50 [1]: 8.91 µM [falling, partial curve]

Cc1ccc(C(C)C)c(OCCNC(=O)c2ccccc2O)c1
AC50 [1]: 35.5 µM [falling, single point]

Cc1cc(C(=O)OCC(=O)Nc2ccc(F)c(F)c2)c(C)o1
AC50 [1]: 2.91 µM [falling, single point]

C/C(=N\NC(=O)c1ccccc1F)c1ccc2c(c1)Nc1ccccc1S2
AC50 [1]: 9.2 µM [falling, partial curve, poor fit]

O=C(Cn1cc(-c2nnnn2-c2ccc(Cl)cc2)c(=O)c2ccccc21)c1ccccc1
AC50 [1]: 7.08 µM [falling, partial curve, poor fit]

c1ccc(CSc2nnc(-c3ccco3)o2)cc1
AC50 [1]: 8.91 µM [rising, partial curve, poor fit]

COc1cccc(C2c3[nH]c4ccccc4c3CCN2C(=O)c2ccccc2F)c1OC (stereo unspecified)
AC50 [1]: 12.6 µM [falling, single point]

CCNC(=S)N1CCN(C(c2ccccc2)c2ccccc2)CC1
AC50 [1]: 32.6 µM [falling, single point]

Cc1cc(C)c2c(N)c(C(=O)Nc3ccc([N+](=O)[O-])cc3)sc2n1
AC50 [1]: 0.447 µM [rising, full curve, poor fit]

CS(=O)(=O)c1ccccc1-c1nnc(NC(=O)c2ccc(S(=O)(=O)N3CCCC3)cc2)o1
AC50 [1]: 25.9 µM [falling, single point]

O=C(NNC(=O)c1ccccc1O)c1ccc(Br)cc1
AC50 [1]: 1.26 µM [falling, full curve]

Cc1ccc(NC(=O)c2cnc(SCC(=O)N3CCCc4ccccc43)n(C)c2=O)cc1C
AC50 [1]: 11.2 µM [rising, partial curve, poor fit]

O=C(NCc1cccs1)c1nn2cccnc2c1Cl
AC50 [1]: 16.4 µM [falling, partial curve, poor fit]

O=C(CC1C(=O)N(Cc2ccccc2)C(=S)N1CCN1CCOCC1)Nc1ccc(F)cc1 (stereo unspecified)
AC50 [1]: 17.8 µM [falling, partial curve, poor fit]

CC(=O)Nc1cccc(C(=O)OCC(=O)N(c2ccccc2)C2CCS(=O)(=O)C2)c1 (stereo unspecified)
AC50 [1]: 18.4 µM [falling, partial curve]

COC(=O)c1ccc(Cn2c(C)cc(C)[n+]2C)o1
AC50 [1]: 6.51 µM [falling, single point]

CCOC(=O)CN(C)Cc1c[nH]c2ccccc12
AC50 [1]: 32.6 µM [rising, single point]

COc1ccc(S(=O)(=O)N2CCC[C@H]2C(=O)NCc2ccc(Cl)cc2)cc1
AC50 [1]: 3.98 µM [falling, single point]
